Experimental data published in ChEMBL document CHEMBL3124860, “Fragment-based identification of amides derived from trans-2-(pyridin-3-yl)cyclopropanecarboxylic acid as potent inhibitors of human nicotinamide phosphoribosyltransferase (NAMPT)” (J Med Chem, 2014).
Values after ≈ are worked out from the molar mass of the structure shown.

Assay: physchem
Details: buffer

Structure (SMILES)	solubility at 24 h [µM]
O=C(Nc1ccc(S(=O)(=O)N2CC3CCC(C2)O3)cc1)[C@@H]1C[C@H]1c1cccnc1 (mixture of isomers)	13
O=C(Nc1ccc(S(=O)(=O)c2cnn(C3CCOCC3)c2)cc1)[C@@H]1C[C@H]1c1cccnc1 (racemic)	92 (≈ 41.6 µg/mL)
